Assay results from patent US20070269427A1.
Results are given in words; binding and its absence hold for the method and conditions named. Some results given as binding are weak or reduced against the parent protein; the word gives no strength.

Protein sequences, listed by entry. Tags and fused reporters are not part of them. Residues count along the entry.
UniProt P07722, residues 20-516: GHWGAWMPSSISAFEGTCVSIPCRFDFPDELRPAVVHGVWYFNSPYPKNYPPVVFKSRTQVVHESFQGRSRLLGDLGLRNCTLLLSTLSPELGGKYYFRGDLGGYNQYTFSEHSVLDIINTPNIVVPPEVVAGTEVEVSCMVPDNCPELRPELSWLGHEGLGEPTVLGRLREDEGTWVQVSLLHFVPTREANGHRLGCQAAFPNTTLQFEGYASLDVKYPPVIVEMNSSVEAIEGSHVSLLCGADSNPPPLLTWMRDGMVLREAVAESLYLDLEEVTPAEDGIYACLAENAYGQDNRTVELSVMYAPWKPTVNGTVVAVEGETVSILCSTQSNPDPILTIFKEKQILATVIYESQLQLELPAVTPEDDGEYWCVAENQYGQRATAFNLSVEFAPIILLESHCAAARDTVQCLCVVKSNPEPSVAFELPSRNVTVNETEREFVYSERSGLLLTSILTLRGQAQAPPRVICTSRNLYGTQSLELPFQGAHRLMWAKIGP

Key:
[1] = target: rat MAG-Fc fusion protein (R&D systems; 538-MG) (rat; human) (UniProt P07722); test: ELISA on coated rat MAG-Fc (FIG. 3)
[2] = target: rat MAG-Fc fusion protein (R&D systems; 538-MG) (rat; human) (UniProt P07722); test: direct binding ELISA on coated rat MAG-Fc, culture supernatant
[3] = target: rat MAG-Fc fusion protein (R&D systems; 538-MG) (rat; human) (UniProt P07722); test: ELISA on coated rat MAG-Fc, CHO culture supernatant, detected with anti-human kappa

- binding [1]: binds
- binding [2]: binds
- binding [3]: binds
B1: Chimeric anti-MAG antibody (mouse/human chimeric anti-MAG antibody) (antibody, human IgG1, kappa, V domains shown)
VH: EIQLVQSGPELKKPGETNKISCKASGYTFTNYGMNWVKQAPGKGLKWMGWINTYTGEPTYADDFTGRFAFSLETSASTAYLQISNLKNEDTATYFCARNPINYYGINYEGYVMDYWGQGTLVTVSS
VL: NIMMTQSPSSLAVSAGEKVTMSCKSSHSVLYSSNQKNYLAWYQQKPGQSPKLLIYWASTRESGVPDRFTGSGSGTDFTLTIINVHTEDLAVYYCHQYLSSLTFGTGTKLEIKR
